# Assay results: article PMC11994786
# Amino acid sequences for entries named in this document (tags omitted).
# UniProt Q9CQL1: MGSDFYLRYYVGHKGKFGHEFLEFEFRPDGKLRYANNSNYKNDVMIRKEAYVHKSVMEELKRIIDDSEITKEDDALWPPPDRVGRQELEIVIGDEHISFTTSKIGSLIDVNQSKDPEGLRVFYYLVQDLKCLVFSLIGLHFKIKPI
# UniProt Q8K202: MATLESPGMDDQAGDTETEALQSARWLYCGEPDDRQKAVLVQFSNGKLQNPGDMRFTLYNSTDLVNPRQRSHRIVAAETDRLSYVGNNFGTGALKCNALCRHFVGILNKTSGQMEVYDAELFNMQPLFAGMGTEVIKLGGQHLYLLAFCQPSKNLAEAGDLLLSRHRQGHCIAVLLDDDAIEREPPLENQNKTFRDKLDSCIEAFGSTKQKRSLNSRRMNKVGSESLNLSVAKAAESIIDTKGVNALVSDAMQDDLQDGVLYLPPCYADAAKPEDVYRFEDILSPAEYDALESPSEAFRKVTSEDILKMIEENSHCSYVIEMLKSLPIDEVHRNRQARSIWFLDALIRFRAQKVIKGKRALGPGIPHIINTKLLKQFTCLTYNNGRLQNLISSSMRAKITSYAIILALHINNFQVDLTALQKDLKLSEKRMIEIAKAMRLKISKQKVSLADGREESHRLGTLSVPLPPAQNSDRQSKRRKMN
# UniProt Q91WQ5: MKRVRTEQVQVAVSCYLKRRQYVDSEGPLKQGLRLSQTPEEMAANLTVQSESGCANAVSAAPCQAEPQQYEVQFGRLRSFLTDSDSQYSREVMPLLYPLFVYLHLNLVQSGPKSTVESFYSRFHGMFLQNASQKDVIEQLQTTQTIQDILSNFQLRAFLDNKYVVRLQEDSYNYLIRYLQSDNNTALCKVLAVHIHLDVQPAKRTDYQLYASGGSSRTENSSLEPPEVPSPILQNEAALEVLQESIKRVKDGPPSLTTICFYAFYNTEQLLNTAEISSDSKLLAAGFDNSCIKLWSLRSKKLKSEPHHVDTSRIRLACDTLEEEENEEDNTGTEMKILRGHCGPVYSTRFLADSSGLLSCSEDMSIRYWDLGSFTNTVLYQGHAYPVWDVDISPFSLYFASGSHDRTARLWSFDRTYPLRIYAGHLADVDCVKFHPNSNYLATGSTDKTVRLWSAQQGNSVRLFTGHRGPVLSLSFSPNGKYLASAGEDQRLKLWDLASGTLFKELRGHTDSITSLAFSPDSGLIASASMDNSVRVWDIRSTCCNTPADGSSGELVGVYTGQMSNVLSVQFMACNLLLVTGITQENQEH
# UniProt P62305: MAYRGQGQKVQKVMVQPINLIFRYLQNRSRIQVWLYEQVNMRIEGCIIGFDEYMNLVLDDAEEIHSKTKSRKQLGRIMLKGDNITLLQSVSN
# UniProt Q6QI06: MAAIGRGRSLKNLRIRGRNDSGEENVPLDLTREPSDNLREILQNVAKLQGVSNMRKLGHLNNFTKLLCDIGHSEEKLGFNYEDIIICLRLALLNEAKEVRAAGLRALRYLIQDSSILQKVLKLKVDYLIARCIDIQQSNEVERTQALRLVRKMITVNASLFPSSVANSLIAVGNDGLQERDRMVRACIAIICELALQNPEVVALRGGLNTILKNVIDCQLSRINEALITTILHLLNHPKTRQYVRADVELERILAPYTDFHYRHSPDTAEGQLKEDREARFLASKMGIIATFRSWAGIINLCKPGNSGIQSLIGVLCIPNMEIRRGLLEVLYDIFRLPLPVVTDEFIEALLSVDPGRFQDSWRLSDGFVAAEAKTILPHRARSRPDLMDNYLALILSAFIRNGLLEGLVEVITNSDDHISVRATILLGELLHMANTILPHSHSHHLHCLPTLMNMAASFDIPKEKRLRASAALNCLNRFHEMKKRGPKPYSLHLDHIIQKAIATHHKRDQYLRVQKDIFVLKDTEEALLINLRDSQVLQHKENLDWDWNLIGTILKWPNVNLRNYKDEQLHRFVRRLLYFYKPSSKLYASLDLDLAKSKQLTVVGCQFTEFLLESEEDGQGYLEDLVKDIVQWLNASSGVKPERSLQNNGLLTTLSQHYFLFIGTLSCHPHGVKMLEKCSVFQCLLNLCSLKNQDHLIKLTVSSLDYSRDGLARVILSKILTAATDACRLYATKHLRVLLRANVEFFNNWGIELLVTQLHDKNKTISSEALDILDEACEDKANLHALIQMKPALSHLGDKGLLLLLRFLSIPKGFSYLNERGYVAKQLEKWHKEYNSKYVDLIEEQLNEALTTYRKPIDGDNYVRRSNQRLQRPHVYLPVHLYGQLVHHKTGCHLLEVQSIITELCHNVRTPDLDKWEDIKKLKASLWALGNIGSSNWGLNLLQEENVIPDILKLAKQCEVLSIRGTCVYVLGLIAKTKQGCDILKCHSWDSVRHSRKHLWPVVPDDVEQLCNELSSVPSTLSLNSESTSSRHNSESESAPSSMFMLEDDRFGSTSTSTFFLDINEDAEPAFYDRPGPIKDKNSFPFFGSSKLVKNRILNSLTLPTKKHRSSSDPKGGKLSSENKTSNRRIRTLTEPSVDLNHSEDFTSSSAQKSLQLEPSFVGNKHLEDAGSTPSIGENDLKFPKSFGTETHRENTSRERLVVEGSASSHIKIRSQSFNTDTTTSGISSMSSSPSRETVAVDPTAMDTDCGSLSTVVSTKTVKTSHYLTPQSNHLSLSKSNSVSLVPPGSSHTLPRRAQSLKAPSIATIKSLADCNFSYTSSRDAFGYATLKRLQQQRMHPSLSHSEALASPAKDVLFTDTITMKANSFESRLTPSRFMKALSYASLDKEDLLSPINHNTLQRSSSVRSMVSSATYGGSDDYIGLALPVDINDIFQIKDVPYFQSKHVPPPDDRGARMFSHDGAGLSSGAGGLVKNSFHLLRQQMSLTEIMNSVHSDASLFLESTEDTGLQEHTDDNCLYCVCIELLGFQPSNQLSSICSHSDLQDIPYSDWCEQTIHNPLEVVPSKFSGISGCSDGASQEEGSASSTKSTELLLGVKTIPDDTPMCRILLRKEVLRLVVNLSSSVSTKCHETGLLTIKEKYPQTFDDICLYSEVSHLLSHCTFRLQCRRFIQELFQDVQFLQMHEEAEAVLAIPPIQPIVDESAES
# UniProt P50637: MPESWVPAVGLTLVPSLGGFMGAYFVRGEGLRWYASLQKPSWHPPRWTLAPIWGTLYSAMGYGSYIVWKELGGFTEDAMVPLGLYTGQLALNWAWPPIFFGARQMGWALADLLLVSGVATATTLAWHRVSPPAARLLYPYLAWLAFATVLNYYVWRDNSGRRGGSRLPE
# UniProt O35495: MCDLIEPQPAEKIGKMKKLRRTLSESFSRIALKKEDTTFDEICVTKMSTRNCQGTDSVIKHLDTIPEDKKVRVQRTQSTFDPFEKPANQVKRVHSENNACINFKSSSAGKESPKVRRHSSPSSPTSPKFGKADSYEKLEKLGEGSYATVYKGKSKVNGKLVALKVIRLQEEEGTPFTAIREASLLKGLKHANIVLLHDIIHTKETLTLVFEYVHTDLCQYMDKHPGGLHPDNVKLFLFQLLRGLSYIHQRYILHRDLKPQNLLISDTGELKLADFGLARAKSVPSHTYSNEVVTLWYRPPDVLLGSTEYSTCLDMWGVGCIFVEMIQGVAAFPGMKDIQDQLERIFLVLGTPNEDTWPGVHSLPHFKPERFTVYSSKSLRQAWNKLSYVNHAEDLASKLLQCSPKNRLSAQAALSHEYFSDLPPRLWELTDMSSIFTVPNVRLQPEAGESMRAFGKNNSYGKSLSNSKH
# UniProt P08074: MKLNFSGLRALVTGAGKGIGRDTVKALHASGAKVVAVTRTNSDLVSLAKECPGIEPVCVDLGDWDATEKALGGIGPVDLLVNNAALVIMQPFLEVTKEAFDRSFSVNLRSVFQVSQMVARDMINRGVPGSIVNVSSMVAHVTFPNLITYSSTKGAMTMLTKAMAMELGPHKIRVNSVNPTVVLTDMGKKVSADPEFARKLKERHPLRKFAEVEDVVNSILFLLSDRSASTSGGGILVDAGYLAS
# UniProt Q9Z329: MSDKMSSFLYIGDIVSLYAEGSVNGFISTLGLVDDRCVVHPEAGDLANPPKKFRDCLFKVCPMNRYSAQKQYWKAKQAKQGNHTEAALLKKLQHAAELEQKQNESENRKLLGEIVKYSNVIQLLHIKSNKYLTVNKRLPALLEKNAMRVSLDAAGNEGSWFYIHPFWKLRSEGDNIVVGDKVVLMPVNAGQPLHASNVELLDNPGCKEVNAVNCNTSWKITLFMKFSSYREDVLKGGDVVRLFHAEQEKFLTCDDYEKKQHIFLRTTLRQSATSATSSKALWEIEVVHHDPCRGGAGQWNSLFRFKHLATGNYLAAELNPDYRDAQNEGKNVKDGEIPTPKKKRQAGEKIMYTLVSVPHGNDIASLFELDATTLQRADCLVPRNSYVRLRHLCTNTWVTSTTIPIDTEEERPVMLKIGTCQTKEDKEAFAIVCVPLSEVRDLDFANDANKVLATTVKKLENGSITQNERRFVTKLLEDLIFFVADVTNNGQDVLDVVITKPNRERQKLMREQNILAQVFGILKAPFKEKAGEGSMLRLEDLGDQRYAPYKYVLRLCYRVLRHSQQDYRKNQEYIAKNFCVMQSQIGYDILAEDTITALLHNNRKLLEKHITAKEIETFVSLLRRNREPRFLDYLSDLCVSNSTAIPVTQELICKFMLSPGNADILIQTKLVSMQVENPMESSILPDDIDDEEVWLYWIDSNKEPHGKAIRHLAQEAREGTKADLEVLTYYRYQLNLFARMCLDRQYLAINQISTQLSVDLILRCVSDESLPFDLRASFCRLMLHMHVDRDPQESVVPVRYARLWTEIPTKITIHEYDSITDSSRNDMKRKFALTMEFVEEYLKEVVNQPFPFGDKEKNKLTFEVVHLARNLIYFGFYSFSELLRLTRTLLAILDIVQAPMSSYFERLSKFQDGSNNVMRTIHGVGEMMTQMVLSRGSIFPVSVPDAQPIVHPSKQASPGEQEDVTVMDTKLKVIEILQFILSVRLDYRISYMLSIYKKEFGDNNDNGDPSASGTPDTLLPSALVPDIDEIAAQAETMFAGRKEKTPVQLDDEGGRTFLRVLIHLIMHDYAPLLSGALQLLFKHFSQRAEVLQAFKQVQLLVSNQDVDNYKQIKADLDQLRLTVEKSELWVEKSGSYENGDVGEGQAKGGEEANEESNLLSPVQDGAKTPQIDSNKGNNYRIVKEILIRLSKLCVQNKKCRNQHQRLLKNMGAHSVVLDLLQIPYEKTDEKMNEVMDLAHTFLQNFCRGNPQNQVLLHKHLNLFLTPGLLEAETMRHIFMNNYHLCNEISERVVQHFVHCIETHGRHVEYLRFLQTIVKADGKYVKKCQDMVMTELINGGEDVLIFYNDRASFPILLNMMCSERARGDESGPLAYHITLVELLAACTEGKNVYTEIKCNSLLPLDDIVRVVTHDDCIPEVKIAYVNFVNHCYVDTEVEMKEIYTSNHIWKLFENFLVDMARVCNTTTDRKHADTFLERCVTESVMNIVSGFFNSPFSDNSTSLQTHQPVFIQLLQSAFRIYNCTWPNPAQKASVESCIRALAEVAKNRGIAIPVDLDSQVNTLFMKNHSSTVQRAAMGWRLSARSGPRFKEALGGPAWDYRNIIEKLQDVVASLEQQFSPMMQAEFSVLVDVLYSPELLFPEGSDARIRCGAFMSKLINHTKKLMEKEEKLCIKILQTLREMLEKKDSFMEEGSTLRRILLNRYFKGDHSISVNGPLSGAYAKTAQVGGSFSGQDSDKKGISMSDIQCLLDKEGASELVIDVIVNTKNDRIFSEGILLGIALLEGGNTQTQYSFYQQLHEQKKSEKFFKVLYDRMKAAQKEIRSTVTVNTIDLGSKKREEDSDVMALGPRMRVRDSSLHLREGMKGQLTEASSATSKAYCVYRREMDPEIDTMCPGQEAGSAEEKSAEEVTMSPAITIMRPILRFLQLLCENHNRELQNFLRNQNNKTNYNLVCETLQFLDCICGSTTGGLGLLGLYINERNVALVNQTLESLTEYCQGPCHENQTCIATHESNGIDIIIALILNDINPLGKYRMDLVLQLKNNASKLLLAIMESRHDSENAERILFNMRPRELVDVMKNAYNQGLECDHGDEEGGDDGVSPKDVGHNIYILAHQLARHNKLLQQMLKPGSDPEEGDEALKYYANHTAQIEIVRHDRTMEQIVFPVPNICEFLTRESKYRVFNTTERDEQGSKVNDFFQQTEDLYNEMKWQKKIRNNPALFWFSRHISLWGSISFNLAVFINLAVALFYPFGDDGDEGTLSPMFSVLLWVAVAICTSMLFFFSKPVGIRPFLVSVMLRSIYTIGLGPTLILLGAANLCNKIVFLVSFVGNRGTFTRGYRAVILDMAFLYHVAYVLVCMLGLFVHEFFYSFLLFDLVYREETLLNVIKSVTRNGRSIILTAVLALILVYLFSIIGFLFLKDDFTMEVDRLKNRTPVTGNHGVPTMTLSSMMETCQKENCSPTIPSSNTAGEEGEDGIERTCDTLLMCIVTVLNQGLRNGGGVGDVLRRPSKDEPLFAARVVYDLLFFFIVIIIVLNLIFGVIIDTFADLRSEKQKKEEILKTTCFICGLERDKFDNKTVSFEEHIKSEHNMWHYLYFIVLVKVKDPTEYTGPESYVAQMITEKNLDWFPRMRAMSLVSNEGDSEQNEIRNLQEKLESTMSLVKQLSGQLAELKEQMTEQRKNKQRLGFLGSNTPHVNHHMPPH
# Results are given in words; binding and its absence hold for the method and conditions named. In cells and extracts the contact can be indirect. These calls come from enrichment with a bait or labelling near it, and not all partners need be listed.
# Target: RanBP9-3xHA (Ran Binding Protein 9 fused to three copies of the HA tag) (mouse) (UniProt P69566)
# Experiment: affinity purification with mass spectrometry; anti-HA magnetic beads on 1 mg pre-cleared whole lung lysate of LysMBP9X mice, overnight at 4 °C, on-bead trypsin digestion, LC-MS/MS; hits significant (p ≤ 0.05) against HA-IP from WT mice and Ig-IPs
row,Substance,binding
1,"Wdr26 (WD repeat domain 26), isoform of 725 amino acids (from UniProt Q8C6G8)",binds
2,Armc8 (Armadillo repeat containing 8) (from UniProt Q9DBR3 1-673),binds
3,Magohb (MAGO homolog b) (from UniProt Q9CQL1 1-146),binds
4,Prpf19 (Pre-mRNA processing factor 19) (from UniProt Q99KP6 1-504),binds
5,Polr1e (from UniProt Q8K202 1-482),binds
6,Taf5l (TATA-box binding associated factor 5 like) (from UniProt Q91WQ5 1-589),binds
7,Taf4 (TATA-box binding associated factor 4) (from UniProt A0A2I3BPN6 1-1030),binds
8,Sox6 (SRY-related HMG-box 2) (from UniProt P40645 1-827),binds
9,Ncapd3 (Non-SMC condensing II complex subunit d3) (from UniProt Q6ZQK0 1-1506),binds
10,"Wdr26 (WD repeat domain 26), isoform of 625 amino acids (from UniProt E0CYH4)",binds
11,Snrpe (from UniProt P62305 1-92),binds
12,Rictor (RPTOR independent companion of MTOR complex 2) (from UniProt Q6QI06 1-1708),binds
13,Tho2 (member of the THO complex) (from UniProt B1AZI6 1-1594),binds
14,Prr5l (Proline Rich 5 Like) (from UniProt A2AVJ5 1-370),binds

# More lines, now with the values ahead:
row,binding,Substance
1,binds,Ndufs2 (from UniProt Q91WD5 34-463)
2,binds,Aspm (Assembly factor for spindle microtubules 3) (from UniProt Q8CJ27 1-3122)
3,binds,Tspo (from UniProt P50637 1-169)
4,binds,Eif4a3 (Eukaryotic Translation Initiation Factor 4a3) (from UniProt Q91VC3 1-411)
5,binds,Xpa (Xeroderma pigmentosum group a-complementing protein) (from UniProt Q64267 1-272)
6,binds,RanBP10 (Ran Binding Protein 10) (from UniProt Q6VN19 1-620)
7,binds,Ints5 (Integrator complex subunit 5) (from UniProt Q8CHT3 1-1018)
8,binds,Pparg (Peroxisome Proliferator Activated Receptor Gamma) (from UniProt P37238 1-505)
9,binds,Snrp200 (from UniProt Q6P4T2 1-2136)
10,binds,High temperature requirement protein 2 (HtrA2) (from UniProt Q9JIY5)
11,binds,Rpa1 (Replication Protein A1) (from UniProt Q8VEE4 1-623)
12,binds,Atp5c1 (from UniProt Q91VR2)
13,binds,Cdk14 (Cyclin-dependent kinase 14) (from UniProt O35495 1-469)

# Target: RanBP9-V5 (Ran Binding Protein 9 with a V5 tag at the C-terminus) (mouse) (UniProt P69566)
# Experiment: affinity purification with mass spectrometry; anti-V5 magnetic beads on 1 mg pre-cleared whole lung lysate of LysMBP9X mice, overnight at 4 °C, on-bead trypsin digestion, LC-MS/MS; hits significant (p ≤ 0.05) against V5-IP from WT mice and Ig-IPs
row,Substance,binding
1,"Wdr26 (WD repeat domain 26), isoform of 725 amino acids (from UniProt Q8C6G8)",binds
2,Armc8 (Armadillo repeat containing 8) (from UniProt Q9DBR3 1-673),binds
3,Acadsb (from UniProt Q9DBL1 34-432),binds
4,Akr1b1 (Aldo-Keto Reductase Family 1 Member B) (from UniProt P45376 1-316),binds
5,Spr (from UniProt Q64105 1-261),binds
6,"Wdr26 (WD repeat domain 26), isoform of 625 amino acids (from UniProt E0CYH4)",binds
7,Ndufs6 (from UniProt P52503 21-116),binds
8,Aars1 (Alanyl-tRNA Synthetase 1) (from UniProt Q8BGQ7 1-968),binds
9,Tmsb4x (from UniProt P20065 1-50),binds

# Results, then the substance that gave them:
row,binding,Substance
1,binds,Anxa5 (Annexin A5) (from UniProt P48036 1-319)
2,binds,Adk (Adenosine Kinase) (from UniProt P55264 1-361)
3,binds,Lrrfip2 (Leucine-Rich Repeat Flightless Interacting Protein 2) (from UniProt Q91WK0 1-415)
4,binds,Irgm2 (from UniProt A0A140LIF8 1-395)
5,binds,Nme2 (Nme/Nme23 Nucleoside Diphosphate Kinase 2) (from UniProt Q01768 1-152)
6,binds,Hk1 (Hexokinase 1) (from UniProt P17710-3)
7,binds,Cbr2 (from UniProt P08074 1-244)
8,binds,RanBP10 (Ran Binding Protein 10) (from UniProt Q6VN19 1-620)
9,binds,"Prkdc (Protein Kinase, DNA-activated, Catalytic Subunit) (from UniProt P97313 1-4128)"
10,binds,B2m (Beta-2 microglobulin) (from UniProt P01887 21-119)
11,binds,Itpr2 (from UniProt Q9Z329 1-2701)
12,binds,Aldh9a1 (Aldehyde Dehydrogenase 9 Family Member A1) (from UniProt Q9JLJ2 1-494)
